Source: US20210290648A1, “Potentiation of B-Lactam Antibiotics and B-Lactam/B-Lactamase Inhibitor Combinations Against Multidrug and Extensively Drug-Resistant Pseudomonas Aeruginosa Using Non-Ribosomal Tobramycin-Cyclam Conjugates” (University of Manitoba, priority 2018, published 2021)
Some results were stated once for a whole list of compounds, not compound by compound.

Tests used:
[1] = tested on: MDR/XDR P. aeruginosa clinical isolates; assay: MIC and checkerboard, panel of clinical isolates; assay type: cell-based, Pseudomonas aeruginosa
porcine erythrocytes = assay: Hemolytic assay; conditions: 1024 μg/mL; relative to 0.1% Triton X-100

Molecule	MIC as standalone antibacterial agents [1]	hemolytic effects (porcine erythrocytes)
NCC1OC(OC2C(N)CC(N)C(OC3OC(CO)C(O)C(N)C3O)C2OCCCCN2CCCNCCNCCCNCC2)C(N)CC1O.O=C(O)C(F)(F)F.O=C(O)C(F)(F)F.O=C(O)C(F)(F)F.O=C(O)C(F)(F)F.O=C(O)C(F)(F)F.O=C(O)C(F)(F)F.O=C(O)C(F)(F)F.O=C(O)C(F)(F)F.O=C(O)C(F)(F)F (stereo not shown) [Compound 1, 5-O-(Butylcyclam)-tobramycin.9TFA]	> 256 µg/mL	< 1%
5-O-(Octylcyclam)-tobramycin.9TFA [Compound 2]		< 1%
5-O-(Dodecylcyclam)-tobramycin.9HCl [Compound 3]		< 1%
